Test [1] deals with SARS-CoV-2 -1 PRF reporter mCherry-FSE-GFP(-1). In words: mCherry (red) intensity as percent of control; higher = higher upstream reporter expression. The conditions noted are these: 10 µM; 24 h; HEK293T.
For test [2] the test system is unchanged. In words: percent effect, decrease of GFP/mCherry ratio (-1 PRF reporter) relative to controls; higher = stronger frameshift inhibition. The conditions noted are these: 10 µM; 24 h; HEK293T.

Molecules are shown by their SMILES. Where “and” joins values, the source holds several entries; their conditions need not be identical. Equal values may be shown once. Where a name gives a salt, the structure may show the parent alone. Some of the results follow. This data set is noisy: repeats of one test often differ as much as different tests do.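 HEK293T cells were given each compound shortly before transfection with a reporter in which red mCherry is followed by the SARS-CoV-2 frameshift element and then GFP in the −1 frame, so GFP appears only after frameshifting.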

The compound `CCc1[nH]c(=O)[nH]c1C(=O)c1ccncc1` [piroximone] had a mCherry in test [1] of 104%. Further, the percent effect in test [2] is -1.99%.
Take `CN(CCOc1ccc(CC2SC(=O)NC2=O)cc1)c1ccccn1` (stereo not given) [Rosiglitazone maleate]: the mCherry in test [1] is 89.1%. For the same compound, the percent effect in test [2] was -2.38%.
In turn, `Cc1nc2c([nH]1)-c1ccccc1N(C(=O)c1ccc(NC(=O)c3ccccc3-c3ccccc3)cc1)CC2` [conivaptan] showed a mCherry in test [1] of 121%. For the same compound, in test [2], the percent effect was -4.96%.
In test [1], `O=C(O[C@H]1CN2CCC1CC2)N1CCc2ccccc2[C@@H]1c1ccccc1` gave a mCherry of 104%. For the same compound, in test [2], the percent effect stood at 0.804%.
The corresponding values for `CC(C)(O)c1ccccc1CC[C@@H](SCC1(CC(=O)O)CC1)c1cccc(/C=C/c2ccc3ccc(Cl)cc3n2)c1` are 131% and 0.512%.
For `Cc1onc(NS(=O)(=O)c2ccc(N)cc2)c1C` [sulfatroxazole] the same measures were 64.2% and -1.1%.
Take `CCN(CC)Cc1cc(Nc2ccnc3cc(Cl)ccc23)ccc1O`: the mCherry in test [1] stood at 104%. Moreover, in test [2], the percent effect came to 0.237%.
For `CC(C)[C@H](N)C(=O)OCC(CO)OCn1cnc2c(=O)nc(N)[nH]c21` (stereo not given in full) [Valcyte] the same measures were 105% and -6.65%.
Compound `CCOc1ccccc1OC(c1ccccc1)C1CNCCO1` (stereo not given) [reboxetine] returned a mCherry in test [1] of 120%. For the same compound, the percent effect in test [2] was -1.72%.
The corresponding values for `CCCNS(=O)(=O)Nc1ncnc(OCCOc2ncc(Br)cn2)c1-c1ccc(Br)cc1` are 89.9% and -0.953%.
`COc1cnc(NS(=O)(=O)c2ccc(N)cc2)nc1` [sulfametoxydiazine] had a mCherry in test [1] of 87.9%. Besides, the percent effect in test [2] was -2.05%.
For `COc1cc2c(cc1OC)[C@@H](Cc1cc(OC)c(OC)c(OC)c1)[N+](C)(CCCOC(=O)CC/C=C/CCC(=O)OCCC[N+]1(C)CCc3cc(OC)c(OC)cc3[C@H]1Cc1cc(OC)c(OC)c(OC)c1)CC2` (stereo not given in full) [Mivacron] the same measures were 98.3% and -1.43%.
For `CC(C)CN(C[C@@H](O)[C@H](Cc1ccccc1)NC(=O)O[C@H]1CCOC1)S(=O)(=O)c1ccc(N)cc1` [amprenavir] the same measures were 112% and 14.9%.
For `NC(N)=Nc1nc(CSCC/C(N)=N/S(N)(=O)=O)cs1` the same measures were 86.5% and -1.44%.
Regarding `CNCCC(Oc1ccccc1OC)c1ccccc1` (stereo not given) [Nisoxetine·HCl], the mCherry in test [1] was found to be 77.5%. In addition, the percent effect in test [2] was -1.37%.
Compound `CCCOC(=O)Cn1cc(I)c(=O)c(I)c1` [propyliodone] showed a mCherry in test [1] of 87.7%. Besides, the percent effect in test [2] was -4.67%.
For `CCOC(=O)/C=C(C)/C=C/C=C(C)/C=C/c1c(C)cc(OC)c(C)c1C` [Etretinate] the same measures were 53.4% and -3.13%.
The compound `C=CCOc1ccccc1OCC(O)CNC(C)C` (stereo not given) [oxprenolol] displayed a mCherry in test [1] of 93%. Also, in test [2], the percent effect is -4.46%.
As for `CC(Cc1cccc(C(F)(F)F)c1)NCCOC(=O)c1ccccc1` (stereo not given) [benfluorex], the mCherry in test [1] worked out at 96.4%. Besides, the percent effect in test [2] is -0.68%.
For `OCc1cccnc1` the same measures were 105% and 0.253%.
In turn, `Cn1c(=O)c2c(ncn2CCN2CCC(c3c[nH]c4ccccc34)CC2)n(C)c1=O` [tameridone] had a mCherry in test [1] of 118%. The percent effect in test [2] is 3.78%.
As to `C[n+]1ccccc1C=NO` [pralidoxime iodide], in test [1], the mCherry was 108%. For the same compound, the percent effect in test [2] is -0.676%.
As for `CCN(CC)CCNC(=O)c1cc(Cl)c(N)cc1OC` [metoclopramide], in test [1], the mCherry was 90.1% and 86.4%. The percent effect in test [2] is -2.15% and -3.89%.
For `CC(=O)OCC(=O)[C@@]1(O)CC[C@H]2[C@@H]3CCC4=CC(=O)CC[C@]4(C)[C@H]3C(=O)C[C@@]21C`, the mCherry in test [1] stood at 101%. For the same compound, in test [2], the percent effect was -3.98%.
For the compound `Nc1c(CC(=O)O)cccc1C(=O)c1ccccc1` [amfenac], in test [1], the mCherry is 107%. Besides, the percent effect in test [2] is -0.0736%.
For `N[C@H](Cc1ccccc1)C(=O)O` the same measures were 108% and -0.443%.
The corresponding values for `N[C@H](Cc1cnc[nH]1)C(=O)O` are 89.8% and -5.2%.
The corresponding values for `OC1(c2ccc(Cl)c(C(F)(F)F)c2)CCN(CCCC(c2ccc(F)cc2)c2ccc(F)cc2)CC1` [penfluridol] are 129% and -4.03%.
Compound `O=c1[nH]cnc2c1ncn2[C@@H]1O[C@H](CO)[C@@H](O)[C@H]1O` registered a mCherry in test [1] of 95.4%. Moreover, the percent effect in test [2] is 0.252%.
The corresponding values for `Cc1cccc(C)c1NC(=O)CN(CC(=O)O)CC(=O)O` [lidofenin] are 89.6% and -0.673%.
As to `CC(C)Nc1cccnc1N1CCN(C(=O)c2cc3cc(NS(C)(=O)=O)ccc3[nH]2)CC1` [Delavirdine mesylate], in test [1], the mCherry came out at 101%. In test [2], the percent effect is -4.87%.
For `CCCN(CCC)C(=O)C(CCC(=O)O)NC(=O)c1ccccc1` (stereo not given) [proglumide], the mCherry in test [1] is 66.5%. Further, the percent effect in test [2] is -4.6%.
The corresponding values for `CC(=O)c1ccc2c(c1)N(CCCN(C)C)c1ccccc1S2` [acepromazine] are 2620% and -23.9%.
`CC=CC(=O)N(CC)c1ccccc1C` [crotamiton]: in test [1], the mCherry worked out at 105%. For the same compound, the percent effect in test [2] was -3.86%.
`CC[C@]1(O)C[C@H]2CN(CCc3c([nH]c4ccccc34)[C@@](C(=O)OC)(c3cc4c(cc3OC)N(C=O)[C@H]3[C@@](O)(C(=O)OC)[C@H](OC(C)=O)[C@]5(CC)C=CCN6CC[C@]43[C@@H]65)C2)C1`: in test [1], the mCherry was 35.9%. Further, in test [2], the percent effect is -28.1%.
